Library screen at single concentrations

Source: ChEMBL document CHEMBL3988442, “University of Dundee, Small-Polar-MMV Screening Library” (2021).

Mtb glucose medium: 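Phenotypic screen: M. tuberculosis growth, glucose 7H9 medium, 3 days; the read-out is not stated. Tested at 500 µM. Direction is inferred from retests: higher values go with more growth inhibition. Of about 18,000 compounds tested this way, about 1,400 (7.9%) reached 50% or more in at least one test.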
Mtb cholesterol medium: 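Whole-cell growth test on Mycobacterium tuberculosis, read after 4 days in a medium based on cholesterol and the lipid DPPC; the read-out is not stated. Tested at 500 µM. The record gives no direction; compounds that gave an IC50 in retests scored well above the rest, so higher reads as more growth inhibition. Of about 18,000 compounds tested this way, about 900 (5%) reached 50% or more in at least one test.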

The filed quantity is “Percent Effect” (%). The controls that fix the scale are not given in the record; negative values are as filed. Compounds were drawn at random from those tested, without regard to their results.

SMILES	Mtb glucose medium	Mtb cholesterol medium
CN1CCN(C)C(CC(=O)NCc2ccoc2)C1 (stereo not given)	3.617%	0.04534%
CNC(=O)CC1CCN(CC2(SC)CCC2)CC1	7.039%	9.208%
COC(=O)CNC(=O)CSc1nc(C)cc(C)c1C#N	7.171%	-12.95%
CC(C)C(N)C(=O)N1CCOCC1 (stereo not given)	1.733%	8.461%
COc1ccc(C(F)(F)F)cn1	-2.921%	2.993%
Cn1nccc1CCC(=O)N1C[C@H](C2CC2)[C@@H](N)C1	8.647%	12.95%
Cc1ccncc1C(=O)N1C[C@@H](CO)[C@H](N(C)C)C1	10.78%	2.881%
CN(C)c1cncc(N2CC[C@](C)(O)[C@@H](O)C2)n1	-109.6%	-8.776%
N#CCCCS(=O)(=O)c1ccc(Cl)cn1	18.88%	19.04%
N[C@H]1CC[C@@H](NC(=O)CCCc2cn[nH]c2)CC1	15.06%	11.79%
O=C(NCc1ccncc1)c1ncsc1C(F)(F)F	18.27%	6.621%
Cc1nc(NC2CC2)sc1C(=O)NCc1ccncc1	16.5%	17.5%
CCNC(C)c1cccnc1 (stereo not given)	-4.182%	-8.254%
CCS(=O)(=O)N1CC(C(=O)N(C)C)Oc2ccccc21 (stereo not given)	1.937%	2.038%
CCN1CCC(NC(C)c2ccc(F)cn2)CC1 (stereo not given)	4.941%	-1.512%
CCOCCC(=O)N[C@@H]1COCC[C@@H]1OCC(N)=O	-3.637%	-17.69%
COc1ccc(NC(=O)N(CCO)C(C)C)c(C)c1	-2.807%	-3.91%
Cc1cc(Cl)ccc1C(=O)NCC1(O)CCNC1 (stereo not given)	14.78%	-11.1%
CC(C)C(=O)Nc1ccc(-c2cnccc2N)cc1	10.42%	6.988%
Cc1ccc(C#N)cc1NC(=O)N1CCOCC1	14.49%	4.257%
NCc1ccc(CNC(=O)C2CCCCO2)cc1 (stereo not given)	25.8%	0.1175%
Cc1c(C(=O)NC2CCN(S(C)(=O)=O)CC2)cnn1C	16.9%	-5.288%
CCN1CCN(CC(=O)Nc2ccc(C)cc2C)CC1	21.37%	4.615%
COCCCn1ccc(NC2CCSC2)n1 (stereo not given)	28.29%	13.36%
COc1ccc(C(C)=O)cc1CN1CCC[C@H]1CO	28.87%	1.207%
O=C1CCNc2ncccc21	-3.332%	-18.6%
COc1ccc(CC(C)(C#N)NC(C)=O)cc1OC (stereo not given)	13.75%	7.397%
CS(=O)(=O)c1cccc(C(=O)NCC2(O)CCNC2)c1 (stereo not given)	13.45%	1.935%
CCN(CC)C(=O)C(C)NC(=O)c1cc(C#N)c[nH]1 (stereo not given)	-2.594%	-12.19%
NCc1ccccc1OC(F)(F)F	-10.87%	-25.53%
CC[C@@]1(O)CCN(Cc2noc(COC)n2)C[C@H]1O	4.856%	3.989%
CNC(=O)C1CCCCN1C(=O)Cn1nc(C)cc1N (stereo not given)	-0.2409%	-0.4279%
O=C(CSCCN1C(=O)CCC1=O)Nc1ccccc1	8.683%	-3.358%
COCCN(Cc1ccco1)C(=O)c1cccnc1O	-0.2275%	-19.28%
COCCNS(=O)(=O)c1ccc2c(c1)CCC(=O)N2	7.064%	4.693%
CN(CCNC(=O)[C@@H](N)CC1CCCCC1)S(C)(=O)=O	-5.638%	-9.323%
Cn1c(=O)c2c(ncn2CC2CCCCO2)n(C)c1=O (stereo not given)	6.345%	0.7911%
COc1nc(C)cc(C)c1CN	21.66%	6.774%
CC(CO)NC(=O)NCc1nc2ccccc2s1 (stereo not given)	0.1809%	-8.285%
CC(CO)N1CCCN(c2cccc(C#N)n2)CC1 (stereo not given)	10.41%	-2.616%
CN1C[C@H]2NCCC[C@H]2C1=O	-6.103%	-14.53%
CS(=O)(=O)N1CCN(c2ccccc2F)CC1	8.478%	13.44%
Nc1nnc(CO)s1	2.755%	2.025%
CC(C)CN1CCN(C(=O)CN2CCOCC2)CC1	-5.752%	-0.682%
C=C(C)COc1ccccc1S(C)(=O)=O	20.32%	5.02%
CC(C)OCCC1(N)CC1	15.29%	-2.658%
Cc1noc(C)c1C(=O)NCCN1CCCCCC1=O	12.74%	-3.895%
O=C(C1CCOCC1)N1CCC(Oc2ccccc2)C1 (stereo not given)	22.62%	30.49%
CNS(=O)(=O)c1cccc(CN)c1	14.89%	23.25%
COc1cccc(CN2CCNCC2)c1OC	15.23%	2.295%
O=C(Cn1ccccc1=O)Nc1nc2c(s1)CCC2	-1.43%	-20.45%
CCN(CC)C(C(N)=O)c1ccccc1 (stereo not given)	1.592%	-1.276%
O=C1CNCC(=O)N1	-5.304%	-10.15%
CCC(C)(C)NC(=O)c1nn(-c2ccccc2)nc1C	53.64%	56.09%
NC1(c2ccccc2F)CCC1	-12.06%	-9.602%
CC1CN(C)c2ccccc2CN1C(=O)c1cc[nH]n1 (stereo not given)	24.55%	7.376%
CCC(C)(NC(=O)Nc1ncnn1C)c1nccs1 (stereo not given)	-14.32%	-19.65%
NC(c1ccccc1)C(F)F (stereo not given)	1.149%	-14.89%
CC(C)c1nc(CN2CCn3ccnc3C2)no1	10.3%	-2.679%
Cc1cc(-c2cc(N3CCN(C)CC3)nc(N)n2)[nH]n1	22.53%	-13.26%
O=C1NCCCC12CCCCC2	10.89%	10.4%
CS(=O)(=O)c1cc(CN)cc(C(F)(F)F)c1	13.21%	5.245%
CC(=O)c1ccc(NC(=O)CN2CCN(C)CC2)cc1	16.26%	12.77%
Cc1nc(NC(=O)CCc2cccs2)n(C)n1	-3.118%	-10.72%
COC(=O)NC(C)C(=O)NCCSc1nnc(C)s1 (stereo not given)	18.01%	7.321%

7 of the entries, repeated:

For CCN1CCN(CC(=O)Nc2ccc(C)cc2C)CC1 the result was Mtb glucose medium: 21.37%; Mtb cholesterol medium: 4.615%.
For Cc1nc(NC(=O)CCc2cccs2)n(C)n1 the result was Mtb glucose medium: -3.118%; Mtb cholesterol medium: -10.72%.
For Cn1c(=O)c2c(ncn2CC2CCCCO2)n(C)c1=O (stereo not given) the result was Mtb glucose medium: 6.345%; Mtb cholesterol medium: 0.7911%.
For COc1ccc(NC(=O)N(CCO)C(C)C)c(C)c1 the result was Mtb glucose medium: -2.807%; Mtb cholesterol medium: -3.91%.
For CN(CCNC(=O)[C@@H](N)CC1CCCCC1)S(C)(=O)=O the result was Mtb glucose medium: -5.638%; Mtb cholesterol medium: -9.323%.
For Nc1nnc(CO)s1 the result was Mtb glucose medium: 2.755%; Mtb cholesterol medium: 2.025%.
For NCc1ccc(CNC(=O)C2CCCCO2)cc1 (stereo not given) the result was Mtb glucose medium: 25.8%; Mtb cholesterol medium: 0.1175%.